# Reference: PubChem BioAssay AID1259308 (NCATS, 2017)
# Aim: 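Knock-downs that increase output of a recombinant reporter protein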 (primary screen)
# Cell system: human HEK293 embryonic kidney cells stably expressing firefly luciferase (HEK-CMV-Luc2-Hygro)
# Reagents: single siRNA against human genes, 0.8 pmol siRNA per well
# Time to read-out: 72 h
# Measured: 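Reporter luminescence and viable-cell signal on separate replicate plates, given as percent of non-targeting control and median/MAD z-scores, plus per-cell luciferase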
# Reading the numbers: total luciferase, z-score and total luciferase, % of control: higher = more reporter protein produced
# Rule for the call: 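Active when the median/MAD z-score for overall luciferase is greater than 3; a gene was taken forward for validation with new siRNAs if at least two of its three siRNAs passed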
# Meaning of the calls: active = raised luciferase; inactive = no rise
# Shown is a random part of about 59,000 deposited reagents. About 1,510 of them (2.6%) were called active. 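Calls use total luciferase alone and ignore viability, so some active siRNAs may act by altering cell number.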 Unmarked entries are inactive. Reagents against one gene are numbered here. Further read-outs or replicates are left out here.
gene,siRNA no.,"total luciferase, z-score","total luciferase, % of control"
MIMS2 (mitochondrial inner membrane structural 2),1,1.61,114
MIMS2 (mitochondrial inner membrane structural 2),2,-0.941,63.2
MIMS2 (mitochondrial inner membrane structural 2),3,-0.183,78.2
BABAM1 (BRISC and BRCA1 A complex member 1),1,-0.818,65.6
BABAM1 (BRISC and BRCA1 A complex member 1),2,1.88,119
BABAM1 (BRISC and BRCA1 A complex member 1),3,-0.0783,80.3
KCNK7 (potassium two pore domain channel subfamily K member 7),1,-1.22,57.7
KCNK7 (potassium two pore domain channel subfamily K member 7),2,-1.3,56.1
KCNK7 (potassium two pore domain channel subfamily K member 7),3,0.383,89.5
ATRAID (all-trans retinoic acid induced differentiation factor),1,-0.00738,81.7
ATRAID (all-trans retinoic acid induced differentiation factor),2,4.37 (active),169
ATRAID (all-trans retinoic acid induced differentiation factor),3,-1.58,50.5
OSGEP (O-sialoglycoprotein endopeptidase),1,0.202,85.9
OSGEP (O-sialoglycoprotein endopeptidase),2,0.381,89.5
OSGEP (O-sialoglycoprotein endopeptidase),3,2.9,140
LRRC30 (leucine rich repeat containing 30),1,0.166,85.2
LRRC30 (leucine rich repeat containing 30),2,-0.869,64.6
LRRC30 (leucine rich repeat containing 30),3,2.77,137
MYOD1 (myogenic differentiation 1),1,1.99,121
MYOD1 (myogenic differentiation 1),2,0.434,90.5
MYOD1 (myogenic differentiation 1),3,-0.117,79.6
OPRK1 (opioid receptor kappa 1),1,-2.59,30.4
OPRK1 (opioid receptor kappa 1),2,-0.263,76.7
OPRK1 (opioid receptor kappa 1),3,-0.811,65.7
